In paper PMC10112521, “High-throughput AR dimerization assay identifies androgen disrupting chemicals and metabolites” (Frontiers in Toxicology, 2023):
Structures can show the parent of a compound that is named as a salt.

How the values were obtained:
[1] = target: T1, human AR (Homo sapiens, UniProt P10275); test: cell-based; design: species or system AR2 cells (HepG2-AR2); NanoLuc complementation AR homodimerization, antagonist mode, loss of agonist-induced luminescence, AC50 by Hill fit; conditions: hill_ga, antagonist mode, 10 nM agonist stimulus, 18 h, no CYP expressed
T1 sequence (P10275 1-920) 1: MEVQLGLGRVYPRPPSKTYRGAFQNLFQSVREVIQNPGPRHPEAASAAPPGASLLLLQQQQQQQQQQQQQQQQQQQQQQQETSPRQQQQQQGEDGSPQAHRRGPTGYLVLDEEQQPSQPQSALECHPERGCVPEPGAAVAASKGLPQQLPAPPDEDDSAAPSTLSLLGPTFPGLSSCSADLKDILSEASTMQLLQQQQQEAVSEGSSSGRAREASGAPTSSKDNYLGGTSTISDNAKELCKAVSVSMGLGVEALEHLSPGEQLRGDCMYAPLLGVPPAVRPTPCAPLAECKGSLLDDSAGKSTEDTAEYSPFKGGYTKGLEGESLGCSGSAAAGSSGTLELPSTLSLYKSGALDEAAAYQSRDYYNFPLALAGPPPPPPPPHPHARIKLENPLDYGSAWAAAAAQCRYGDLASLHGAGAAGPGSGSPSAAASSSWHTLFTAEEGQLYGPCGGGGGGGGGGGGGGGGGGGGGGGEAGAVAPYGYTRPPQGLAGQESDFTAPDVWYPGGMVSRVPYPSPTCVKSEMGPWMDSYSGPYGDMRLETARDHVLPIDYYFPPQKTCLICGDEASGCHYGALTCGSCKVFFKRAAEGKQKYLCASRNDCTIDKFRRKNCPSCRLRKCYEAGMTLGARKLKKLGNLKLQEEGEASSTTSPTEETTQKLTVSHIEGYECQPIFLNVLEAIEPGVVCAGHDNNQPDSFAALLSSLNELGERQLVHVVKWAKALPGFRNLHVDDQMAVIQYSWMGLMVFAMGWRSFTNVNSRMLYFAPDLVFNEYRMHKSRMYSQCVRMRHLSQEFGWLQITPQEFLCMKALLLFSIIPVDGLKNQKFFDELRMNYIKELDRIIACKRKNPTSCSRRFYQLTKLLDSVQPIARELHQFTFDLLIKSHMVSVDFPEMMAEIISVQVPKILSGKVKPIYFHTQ
T1 sequence (P10275 1-920) 2: T1 sequence (P10275 1-920) 1

[2] = target: T1, human AR; test: cell-based; design: species or system AR2 cells (HepG2-AR2); NanoLuc complementation AR homodimerization, agonist mode, luminescence gain, AC50 by Hill fit; conditions: hill_ga, spid=Bgal; agonist mode, 18 h, no CYP expressed

AC50 [2] | SMILES | AC50 ([1]; spid=Bgal) | AC50 ([1]; spid=No_RNA)
– | CCN(CC)CCOc1ccc(/C(=C(/Cl)c2ccccc2)c2ccccc2)cc1 [Enclomiphene hydrochloride] | 7.61 µM | 6.29 µM
> 99.9 µM | CCN(CC)CCOc1ccc(C(=C(Cl)c2ccccc2)c2ccccc2)cc1 [Clomiphene citrate] | 9.09 µM | 8.79 µM
